Measured values taken from the supplement of paper PMC10849652.
The list shows a part of the results.

The chains behind the UniProt entries cited, without tags or fusion partners. Where a name states a change or a piece, a line headed by the entry shows the natural chain unless it says otherwise.
UniProt O60830: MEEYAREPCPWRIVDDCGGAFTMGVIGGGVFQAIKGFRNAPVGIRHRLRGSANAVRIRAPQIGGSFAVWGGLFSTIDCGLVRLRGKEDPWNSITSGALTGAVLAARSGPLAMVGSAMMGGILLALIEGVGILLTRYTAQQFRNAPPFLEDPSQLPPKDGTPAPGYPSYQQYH
UniProt Q96B96: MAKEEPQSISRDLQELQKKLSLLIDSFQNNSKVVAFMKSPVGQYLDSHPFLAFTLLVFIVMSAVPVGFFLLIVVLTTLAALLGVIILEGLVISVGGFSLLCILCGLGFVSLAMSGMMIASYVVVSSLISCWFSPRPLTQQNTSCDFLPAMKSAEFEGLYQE
UniProt Q9BSA9: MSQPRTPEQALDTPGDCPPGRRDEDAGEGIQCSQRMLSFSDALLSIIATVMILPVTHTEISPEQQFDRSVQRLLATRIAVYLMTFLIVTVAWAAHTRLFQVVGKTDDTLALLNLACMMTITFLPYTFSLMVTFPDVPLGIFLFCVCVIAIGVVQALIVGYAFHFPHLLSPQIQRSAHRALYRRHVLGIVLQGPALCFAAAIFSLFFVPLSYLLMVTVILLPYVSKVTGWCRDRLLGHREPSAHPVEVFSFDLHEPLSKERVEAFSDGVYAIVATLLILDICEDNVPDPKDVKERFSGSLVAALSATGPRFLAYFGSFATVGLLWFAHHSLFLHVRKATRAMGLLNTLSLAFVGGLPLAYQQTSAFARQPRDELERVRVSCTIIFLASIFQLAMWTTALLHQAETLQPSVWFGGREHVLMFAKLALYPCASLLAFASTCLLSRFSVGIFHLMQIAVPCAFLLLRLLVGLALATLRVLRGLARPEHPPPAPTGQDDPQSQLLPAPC
UniProt Q9NS93: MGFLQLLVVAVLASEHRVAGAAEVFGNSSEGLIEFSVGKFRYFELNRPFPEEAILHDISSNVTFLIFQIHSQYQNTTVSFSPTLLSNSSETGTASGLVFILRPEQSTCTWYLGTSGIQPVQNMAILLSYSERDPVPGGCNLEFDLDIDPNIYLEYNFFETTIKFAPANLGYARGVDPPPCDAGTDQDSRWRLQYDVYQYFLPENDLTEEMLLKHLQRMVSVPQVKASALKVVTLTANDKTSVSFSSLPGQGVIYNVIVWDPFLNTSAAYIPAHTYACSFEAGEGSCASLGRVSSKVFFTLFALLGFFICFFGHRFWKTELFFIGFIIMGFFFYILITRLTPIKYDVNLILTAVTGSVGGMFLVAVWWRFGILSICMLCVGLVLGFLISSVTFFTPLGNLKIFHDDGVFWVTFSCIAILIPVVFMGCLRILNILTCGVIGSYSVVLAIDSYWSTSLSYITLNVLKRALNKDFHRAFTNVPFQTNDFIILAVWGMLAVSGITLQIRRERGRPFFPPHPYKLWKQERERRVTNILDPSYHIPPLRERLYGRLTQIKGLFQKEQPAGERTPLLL
UniProt Q96CG3: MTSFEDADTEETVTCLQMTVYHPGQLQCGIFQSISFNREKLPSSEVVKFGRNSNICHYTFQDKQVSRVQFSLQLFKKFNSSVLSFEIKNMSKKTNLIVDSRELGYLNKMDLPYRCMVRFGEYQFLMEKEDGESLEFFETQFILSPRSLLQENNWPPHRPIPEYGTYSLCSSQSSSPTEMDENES
UniProt Q96IK0: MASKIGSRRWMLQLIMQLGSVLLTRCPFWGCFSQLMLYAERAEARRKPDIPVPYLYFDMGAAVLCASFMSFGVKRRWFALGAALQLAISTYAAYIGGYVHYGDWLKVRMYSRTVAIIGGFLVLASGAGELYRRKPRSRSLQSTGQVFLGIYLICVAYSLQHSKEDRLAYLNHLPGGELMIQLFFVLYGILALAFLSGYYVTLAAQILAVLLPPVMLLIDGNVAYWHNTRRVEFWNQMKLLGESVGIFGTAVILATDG

Assays:
Assay in all cases: log2 fold change, soluble protein after heating vs DMSO (PISA); higher = thermal stabilisation; K562 lysate, 10 uM; active = over 0.2 and 3.5 SD of the protein, either way, in both replicates (recomputed)
alvocidib = compound: CN1CC[C@H](c2c(O)cc(O)c3c(=O)cc(-c4ccccc4Cl)oc23)[C@H](O)C1 [alvocidib]
Outline: (§1)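 Pellets of K562 cells were dounce-homogenised in PBS pH 7.4 with 1 mM MgCl2, and the crude extract was held at 1 mg/mL protein for a 30 min treatment with 10 μM compound. Aliquots were heated for 3 min over 48°C-58°C and pooled before NP-40 was added to 0.5% at 4°C. The supernatant from 21,000xg for 90 min was quantified by TMTpro 16plex LC-MS/MS with channel sums equalised. Values are reported from duplicates as log-two fold change in thermal stability relative to solvent controls.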

Tubastatin A = compound: CN1CCc2c(c3ccccc3n2Cc2ccc(C(=O)NO)cc2)C1 [Tubastatin A]
Outline: as §1

[1] = compound: CNC(=O)C1=CC=CC=C1NC2=NC(=NC=C2Cl)NC3=C(C=C(C=C3)N4CCOCC4)OC
Outline: as §1

defactinib = compound: CNC(=O)c1ccc(Nc2ncc(C(F)(F)F)c(NCc3nccnc3N(C)S(C)(=O)=O)n2)cc1 [defactinib]
Outline: as §1

[2] = compound: CNc1nc(-c2ccc3c(N)n[nH]c3c2)cc(N2C[C@@H](C(=O)NC3CCCCC3)CC[C@H]2C)n1
Outline: as §1

encorafenib = compound: COC(=O)N[C@@H](C)CNc1nccc(-c2cn(C(C)C)nc2-c2cc(Cl)cc(NS(C)(=O)=O)c2F)n1 [encorafenib]
Outline: as §1

[3] = compound: COC(=O)[C@H](CCSC)NC(=O)C1=C(C=C(C=C1)NC[C@H](CS)N)C2=CC=CC=C2
Outline: as §1

alisertib = compound: COc1cc(Nc2ncc3c(n2)-c2ccc(Cl)cc2C(c2c(F)cccc2OC)=NC3)ccc1C(=O)O [alisertib]
Outline: as §1

[4] = compound: COc1cc2nc(-c3cc(F)ccc3O)nc(N[C@@H]3CNC[C@H]3C(C)(C)O)c2cc1OC
Outline: as §1

gefitinib = compound: COc1cc2ncnc(Nc3ccc(F)c(Cl)c3)c2cc1OCCCN1CCOCC1 [gefitinib]
Outline: as §1

lapatinib = compound: CS(=O)(=O)CCNCc1ccc(-c2ccc3ncnc(Nc4ccc(OCc5cccc(F)c5)c(Cl)c4)c3c2)o1 [lapatinib]
Outline: as §1

pictilisib = compound: CS(=O)(=O)N1CCN(Cc2cc3nc(-c4cccc5[nH]ncc45)nc(N4CCOCC4)c3s2)CC1 [pictilisib]
Outline: as §1

crizotinib = compound: C[C@@H](Oc1cc(-c2cnn(C3CCNCC3)c2)cnc1N)c1c(Cl)ccc(F)c1Cl [crizotinib]
Outline: as §1

[5] = compound: C[C@H](C1=CC=C(C=C1)C(=O)NC2=C3C=CNC3=NC=C2)N
Outline: as §1

duvelisib = compound: C[C@H](Nc1ncnc2nc[nH]c12)c1cc2cccc(Cl)c2c(=O)n1-c1ccccc1 [duvelisib]
Outline: as §1

gandotinib = compound: Cc1cc(Nc2cc(CN3CCOCC3)c3nc(C)c(Cc4ccc(Cl)cc4F)n3n2)n[nH]1 [gandotinib]
Outline: as §1

tozasertib = compound: Cc1cc(Nc2cc(N3CCN(C)CC3)nc(Sc3ccc(NC(=O)C4CC4)cc3)n2)n[nH]1 [tozasertib]
Outline: as §1

doramapimod = compound: Cc1ccc(-n2nc(C(C)(C)C)cc2NC(=O)Nc2ccc(OCCN3CCOCC3)c3ccccc23)cc1 [doramapimod]
Outline: as §1

bafetinib = compound: Cc1ccc(NC(=O)c2ccc(CN3CC[C@H](N(C)C)C3)c(C(F)(F)F)c2)cc1Nc1nccc(-c2cncnc2)n1 [bafetinib]
Outline: as §1

[6] = compound: Cc1cccc(CC(=O)N2CCc3c2ccc(-c2cn(C)c4ncnc(N)c24)c3F)n1
Outline: as §1

Measured: log2 fold change

TIMM17B (UniProt O60830)
inactive: alvocidib -0.017 | Tubastatin A -0.011 | [1] -0.01 | defactinib -0.011 | [2] 0.044 | encorafenib 0.018 | [3] -0.015 | alisertib -0.013 | [4] -0.005 | gefitinib 0.041 | lapatinib 0.019 | pictilisib 0.036 | crizotinib 0.004 | [5] -0.022 | duvelisib 0.006 | gandotinib 0.037 | tozasertib 0.017 | doramapimod -0.01 | bafetinib 0 | [6] 0.045

TMEM159 isoform 2 (UniProt Q96B96)
inactive: alvocidib -0.039 | Tubastatin A -0.011 | [1] -0.056 | [2] -0.17 | encorafenib 0.135 | [3] -0.1 | alisertib -0.056 | [4] 0.015 | gefitinib -0.045 | lapatinib -0.011 | pictilisib -0.053 | crizotinib -0.033 | [5] -0.078 | duvelisib 0.023 | gandotinib 0.032 | tozasertib 0.056 | doramapimod -0.083 | bafetinib 0.03 | [6] 0.042

TMEM175 (UniProt Q9BSA9)
inactive: alvocidib -0.23 | Tubastatin A 0.039 | [1] 0.082 | pictilisib -0.027 | crizotinib 0.012 | [5] 0.084 | gandotinib -0.388 | doramapimod 0.239 | bafetinib -0.097 | [6] 0.201

TM7SF3 (UniProt Q9NS93)
inactive: alvocidib 0.004 | Tubastatin A -0.018 | [1] -0.108 | defactinib 0.093 | [2] 0.101 | encorafenib -0.031 | [3] 0.006 | pictilisib -0.088 | crizotinib -0.005 | [5] 0.064 | duvelisib -0.058 | gandotinib -0.051 | tozasertib 0.01 | doramapimod -0.027 | bafetinib -0.267 | [6] -0.139

TIFA (UniProt Q96CG3)
inactive: alvocidib 0.01 | Tubastatin A 0.091 | [1] -0.079 | encorafenib 0.019 | [3] -0.051 | crizotinib -0.045 | [5] -0.002 | gandotinib 0.039 | tozasertib 0.027 | doramapimod 0.012 | [6] 0.159

TMEM101 (UniProt Q96IK0)
inactive: alvocidib 0.307 | Tubastatin A -0.016 | [1] 0.058 | [2] 0.121 | encorafenib -0.011 | [3] -0.041 | alisertib 0.028 | [4] 0.148 | gefitinib 0.04 | lapatinib -0.048 | pictilisib -0.071 | crizotinib -0.023 | [5] 1.31 | duvelisib -0.093 | gandotinib -0.12 | tozasertib 0.06 | doramapimod 0.042 | bafetinib 0.033 | [6] 0.115
